Compound in this assay: Nc1ncnc2c1ncn2[C@@H]1O[C@H](COP(=O)(O)OP(=O)(O)OP(=O)(O)O)[C@@H](O)[C@H]1O [adenosine triphosphate]
In words: NP40-soluble protein abundance relative to vehicle (solubility fold change) (ratio); higher = more soluble protein in presence of ATP. An outline of the steps:
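Data come from three independent experiments in which Dounce-homogenised Jurkat crude lysate was treated at eight concentrations from 0.1 to 10 mM. Treatment ran 10 min at room temperature and then 3 min at 37 °C, after which 0.8% NP40 and benzonase were added for 60 min at 4 °C before ultracentrifugation. The supernatant underwent TMT labelling and LC-MS/MS, and vsn-normalised intensities were expressed as fold change against the detergent-processed vehicle in each replicate.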

By UniProt entry, the sequences of proteins in these tests, tags left out. Where a name states a change or a piece, a line headed by the entry shows the natural chain unless it says otherwise.
UniProt Q6YN16: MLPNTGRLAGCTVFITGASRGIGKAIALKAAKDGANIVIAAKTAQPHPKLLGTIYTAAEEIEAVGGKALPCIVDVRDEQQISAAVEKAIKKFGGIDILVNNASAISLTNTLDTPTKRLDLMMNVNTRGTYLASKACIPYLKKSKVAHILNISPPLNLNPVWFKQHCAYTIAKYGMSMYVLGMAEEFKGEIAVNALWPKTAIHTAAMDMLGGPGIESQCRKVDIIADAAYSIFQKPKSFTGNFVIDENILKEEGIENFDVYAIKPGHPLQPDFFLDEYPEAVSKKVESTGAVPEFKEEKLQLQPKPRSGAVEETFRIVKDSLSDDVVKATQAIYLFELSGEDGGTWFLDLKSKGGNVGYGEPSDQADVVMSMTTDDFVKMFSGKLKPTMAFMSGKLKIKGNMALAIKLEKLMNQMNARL
UniProt Q75N03: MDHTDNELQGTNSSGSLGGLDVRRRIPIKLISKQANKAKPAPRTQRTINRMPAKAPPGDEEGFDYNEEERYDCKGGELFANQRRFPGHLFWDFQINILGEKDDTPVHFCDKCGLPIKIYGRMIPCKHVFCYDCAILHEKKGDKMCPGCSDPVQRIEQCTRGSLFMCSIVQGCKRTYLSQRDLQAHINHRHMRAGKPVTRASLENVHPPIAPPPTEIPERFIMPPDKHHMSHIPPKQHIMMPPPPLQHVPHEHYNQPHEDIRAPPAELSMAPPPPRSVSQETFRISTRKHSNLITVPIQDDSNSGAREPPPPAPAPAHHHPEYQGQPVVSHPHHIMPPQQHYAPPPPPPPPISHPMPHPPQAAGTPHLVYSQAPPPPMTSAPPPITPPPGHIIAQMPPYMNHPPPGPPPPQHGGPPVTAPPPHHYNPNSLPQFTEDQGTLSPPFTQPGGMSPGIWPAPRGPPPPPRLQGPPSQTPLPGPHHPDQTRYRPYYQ
UniProt Q6PII3: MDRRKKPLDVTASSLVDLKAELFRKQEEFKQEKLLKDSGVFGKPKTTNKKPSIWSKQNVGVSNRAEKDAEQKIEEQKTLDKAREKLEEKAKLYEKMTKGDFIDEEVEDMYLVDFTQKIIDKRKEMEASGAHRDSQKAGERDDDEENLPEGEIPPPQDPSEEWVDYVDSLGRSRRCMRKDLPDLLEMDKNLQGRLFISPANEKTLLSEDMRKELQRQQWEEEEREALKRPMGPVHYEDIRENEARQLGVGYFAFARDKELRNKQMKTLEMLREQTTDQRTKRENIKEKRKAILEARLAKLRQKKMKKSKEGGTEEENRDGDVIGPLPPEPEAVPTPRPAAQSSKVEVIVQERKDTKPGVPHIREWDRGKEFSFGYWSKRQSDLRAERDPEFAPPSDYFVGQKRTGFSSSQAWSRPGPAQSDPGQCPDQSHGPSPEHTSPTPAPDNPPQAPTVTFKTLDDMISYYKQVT
UniProt Q7L8J4: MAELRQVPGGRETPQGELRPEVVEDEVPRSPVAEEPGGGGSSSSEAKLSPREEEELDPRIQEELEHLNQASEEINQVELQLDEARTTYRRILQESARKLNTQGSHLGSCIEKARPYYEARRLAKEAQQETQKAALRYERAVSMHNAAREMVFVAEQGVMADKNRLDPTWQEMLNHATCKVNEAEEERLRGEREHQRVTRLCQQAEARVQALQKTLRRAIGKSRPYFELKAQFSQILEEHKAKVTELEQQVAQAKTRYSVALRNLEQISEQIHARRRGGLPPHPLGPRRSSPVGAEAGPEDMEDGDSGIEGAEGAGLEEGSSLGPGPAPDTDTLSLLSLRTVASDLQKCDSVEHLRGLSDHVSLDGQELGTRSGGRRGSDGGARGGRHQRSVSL
UniProt Q86UE4: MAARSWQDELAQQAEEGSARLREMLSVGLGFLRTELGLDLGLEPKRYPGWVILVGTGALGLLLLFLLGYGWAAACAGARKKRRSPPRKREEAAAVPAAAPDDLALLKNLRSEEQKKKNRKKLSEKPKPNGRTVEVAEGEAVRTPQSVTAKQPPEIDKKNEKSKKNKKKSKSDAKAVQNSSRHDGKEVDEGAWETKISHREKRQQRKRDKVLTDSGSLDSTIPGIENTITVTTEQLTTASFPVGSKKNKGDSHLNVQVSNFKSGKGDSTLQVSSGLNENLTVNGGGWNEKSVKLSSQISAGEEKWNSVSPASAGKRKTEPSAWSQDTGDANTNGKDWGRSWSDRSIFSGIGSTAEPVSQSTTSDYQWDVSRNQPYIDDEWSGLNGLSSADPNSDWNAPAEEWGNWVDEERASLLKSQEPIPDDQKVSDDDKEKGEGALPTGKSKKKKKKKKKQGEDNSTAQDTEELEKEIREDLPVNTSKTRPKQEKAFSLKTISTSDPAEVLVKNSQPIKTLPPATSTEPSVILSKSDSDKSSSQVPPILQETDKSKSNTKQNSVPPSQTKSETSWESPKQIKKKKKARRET
UniProt Q7LG56, whole entry: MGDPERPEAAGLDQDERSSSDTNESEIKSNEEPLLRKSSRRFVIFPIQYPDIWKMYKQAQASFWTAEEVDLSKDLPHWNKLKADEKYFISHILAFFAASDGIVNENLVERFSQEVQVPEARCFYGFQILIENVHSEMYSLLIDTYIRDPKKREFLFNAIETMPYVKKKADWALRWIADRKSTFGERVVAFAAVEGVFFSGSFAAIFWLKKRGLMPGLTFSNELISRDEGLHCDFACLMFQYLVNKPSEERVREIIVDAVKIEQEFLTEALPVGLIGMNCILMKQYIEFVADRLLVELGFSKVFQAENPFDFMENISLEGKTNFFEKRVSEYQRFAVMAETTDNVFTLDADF
UniProt Q7Z569: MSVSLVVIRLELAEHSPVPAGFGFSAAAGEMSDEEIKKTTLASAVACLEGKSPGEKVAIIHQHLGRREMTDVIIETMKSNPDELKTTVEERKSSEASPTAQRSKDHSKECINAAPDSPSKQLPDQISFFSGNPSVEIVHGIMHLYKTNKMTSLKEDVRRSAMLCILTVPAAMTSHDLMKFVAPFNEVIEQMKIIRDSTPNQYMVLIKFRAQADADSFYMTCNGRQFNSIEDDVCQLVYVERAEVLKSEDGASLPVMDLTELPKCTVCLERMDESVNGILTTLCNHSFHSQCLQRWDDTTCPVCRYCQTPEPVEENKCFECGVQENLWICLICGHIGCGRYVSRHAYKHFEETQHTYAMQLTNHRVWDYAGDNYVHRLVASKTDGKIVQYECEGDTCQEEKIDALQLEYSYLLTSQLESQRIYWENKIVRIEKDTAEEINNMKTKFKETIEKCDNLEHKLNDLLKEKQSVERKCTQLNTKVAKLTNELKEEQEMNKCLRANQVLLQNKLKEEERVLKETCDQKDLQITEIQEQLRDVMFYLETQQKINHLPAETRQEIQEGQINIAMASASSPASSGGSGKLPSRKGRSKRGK
UniProt Q7Z3C6: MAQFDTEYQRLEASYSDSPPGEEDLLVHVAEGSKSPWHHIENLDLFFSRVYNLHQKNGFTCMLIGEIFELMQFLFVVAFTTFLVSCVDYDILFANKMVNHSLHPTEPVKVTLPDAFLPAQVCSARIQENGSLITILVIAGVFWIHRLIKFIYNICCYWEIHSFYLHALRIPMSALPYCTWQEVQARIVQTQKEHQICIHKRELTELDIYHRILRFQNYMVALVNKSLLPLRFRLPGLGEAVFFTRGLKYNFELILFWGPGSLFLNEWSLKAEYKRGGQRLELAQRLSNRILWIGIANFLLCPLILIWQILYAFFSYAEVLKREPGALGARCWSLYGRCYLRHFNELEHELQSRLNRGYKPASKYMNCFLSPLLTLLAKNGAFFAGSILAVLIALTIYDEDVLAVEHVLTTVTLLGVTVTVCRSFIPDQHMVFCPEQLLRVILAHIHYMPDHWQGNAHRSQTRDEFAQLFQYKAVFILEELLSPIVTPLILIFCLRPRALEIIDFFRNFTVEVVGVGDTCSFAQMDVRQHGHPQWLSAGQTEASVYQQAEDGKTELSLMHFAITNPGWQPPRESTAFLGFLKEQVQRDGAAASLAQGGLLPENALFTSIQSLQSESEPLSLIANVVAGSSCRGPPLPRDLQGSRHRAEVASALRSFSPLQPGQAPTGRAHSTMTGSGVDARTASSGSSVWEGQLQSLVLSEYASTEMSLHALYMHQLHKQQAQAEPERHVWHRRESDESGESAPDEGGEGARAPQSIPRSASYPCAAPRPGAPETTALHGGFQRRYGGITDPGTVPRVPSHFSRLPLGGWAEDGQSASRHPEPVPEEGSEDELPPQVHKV
UniProt Q6YP21: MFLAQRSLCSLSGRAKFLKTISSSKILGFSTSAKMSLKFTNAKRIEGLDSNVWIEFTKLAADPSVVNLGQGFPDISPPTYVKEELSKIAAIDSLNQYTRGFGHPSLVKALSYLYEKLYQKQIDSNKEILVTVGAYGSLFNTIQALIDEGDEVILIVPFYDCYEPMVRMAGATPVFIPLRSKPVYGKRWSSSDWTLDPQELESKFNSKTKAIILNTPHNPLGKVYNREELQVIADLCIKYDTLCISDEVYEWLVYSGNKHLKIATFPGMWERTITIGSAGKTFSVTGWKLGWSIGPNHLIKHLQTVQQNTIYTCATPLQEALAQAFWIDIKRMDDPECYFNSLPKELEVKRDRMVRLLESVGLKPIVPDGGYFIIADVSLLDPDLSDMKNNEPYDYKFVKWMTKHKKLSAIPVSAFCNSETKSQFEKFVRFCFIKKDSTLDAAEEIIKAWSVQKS
UniProt Q7L5D6: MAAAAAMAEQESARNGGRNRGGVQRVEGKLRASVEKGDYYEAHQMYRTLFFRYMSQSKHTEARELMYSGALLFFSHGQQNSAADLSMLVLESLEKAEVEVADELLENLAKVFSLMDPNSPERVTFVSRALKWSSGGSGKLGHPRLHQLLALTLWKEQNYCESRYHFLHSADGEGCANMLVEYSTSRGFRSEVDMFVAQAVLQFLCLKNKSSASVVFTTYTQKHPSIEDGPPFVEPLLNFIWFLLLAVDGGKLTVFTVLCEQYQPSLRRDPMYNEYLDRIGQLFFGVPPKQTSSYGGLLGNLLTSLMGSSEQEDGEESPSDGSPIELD
UniProt Q86UX7, whole entry: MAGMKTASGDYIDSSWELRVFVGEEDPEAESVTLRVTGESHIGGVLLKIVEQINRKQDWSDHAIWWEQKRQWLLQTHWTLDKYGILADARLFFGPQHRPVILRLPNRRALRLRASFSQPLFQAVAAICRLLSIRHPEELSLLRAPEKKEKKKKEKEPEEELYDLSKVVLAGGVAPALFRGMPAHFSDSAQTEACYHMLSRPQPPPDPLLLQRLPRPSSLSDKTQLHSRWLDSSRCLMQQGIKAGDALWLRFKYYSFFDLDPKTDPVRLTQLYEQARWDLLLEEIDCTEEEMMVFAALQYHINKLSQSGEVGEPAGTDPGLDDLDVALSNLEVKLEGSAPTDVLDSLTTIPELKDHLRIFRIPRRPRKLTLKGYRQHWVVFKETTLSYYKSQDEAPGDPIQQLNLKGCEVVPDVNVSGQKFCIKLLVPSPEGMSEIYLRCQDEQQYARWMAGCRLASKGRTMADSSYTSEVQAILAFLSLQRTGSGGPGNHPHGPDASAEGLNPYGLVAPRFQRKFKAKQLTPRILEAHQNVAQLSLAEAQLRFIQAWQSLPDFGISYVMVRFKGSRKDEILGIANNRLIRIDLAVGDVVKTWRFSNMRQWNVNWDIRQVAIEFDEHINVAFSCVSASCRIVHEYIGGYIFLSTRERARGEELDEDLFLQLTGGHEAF
UniProt Q86XP3: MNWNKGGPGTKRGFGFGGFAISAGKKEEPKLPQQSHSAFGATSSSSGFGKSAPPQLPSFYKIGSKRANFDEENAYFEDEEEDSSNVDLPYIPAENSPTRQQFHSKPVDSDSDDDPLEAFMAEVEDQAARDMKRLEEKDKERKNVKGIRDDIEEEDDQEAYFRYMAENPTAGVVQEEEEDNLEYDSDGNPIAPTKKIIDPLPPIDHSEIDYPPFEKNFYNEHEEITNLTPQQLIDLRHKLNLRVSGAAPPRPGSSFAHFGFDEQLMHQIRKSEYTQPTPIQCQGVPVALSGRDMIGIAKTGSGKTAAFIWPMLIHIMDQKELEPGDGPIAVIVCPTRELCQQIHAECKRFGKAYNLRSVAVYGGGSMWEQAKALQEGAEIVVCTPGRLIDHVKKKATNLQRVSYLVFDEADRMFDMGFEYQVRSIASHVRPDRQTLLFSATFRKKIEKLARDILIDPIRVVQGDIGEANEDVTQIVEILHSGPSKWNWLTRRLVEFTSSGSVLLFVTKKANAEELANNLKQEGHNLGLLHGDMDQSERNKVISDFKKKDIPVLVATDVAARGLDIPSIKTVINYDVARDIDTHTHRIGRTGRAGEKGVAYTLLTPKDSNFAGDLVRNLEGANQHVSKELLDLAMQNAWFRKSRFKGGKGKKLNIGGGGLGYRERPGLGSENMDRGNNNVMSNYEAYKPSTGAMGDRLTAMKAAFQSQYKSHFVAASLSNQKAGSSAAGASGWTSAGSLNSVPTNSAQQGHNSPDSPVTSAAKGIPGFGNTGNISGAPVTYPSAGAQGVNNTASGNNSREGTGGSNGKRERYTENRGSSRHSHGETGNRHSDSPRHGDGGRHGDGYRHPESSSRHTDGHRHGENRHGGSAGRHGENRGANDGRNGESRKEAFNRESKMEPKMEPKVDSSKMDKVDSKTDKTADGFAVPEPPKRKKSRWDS

Here are results for 60 targets from the supplement of paper PMC6411743.

± gives the standard deviation of the averaged measurements. Only a part is listed here, and it is no random draw. Most entries show no effect beyond the scatter of the controls.

Turning to TAOK1 (UniProt Q7L7X3), the NP40-soluble protein abundance (concentration: 0.1mM) is 1.019 ± 0.0021 and the NP40-soluble protein abundance (concentration: 0.5mM) worked out at 1.03 ± 0.022.

As for HSDL2 (UniProt Q6YN16), the NP40-soluble protein abundance turned out to be 0.9716 ± 0.0037 (concentration: 0.1mM) and 0.982 ± 0.022 (concentration: 0.5mM).

Take SPATS2 (UniProt Q86XZ4): the NP40-soluble protein abundance was 1.03 ± 0.07 (concentration: 0.1mM) and 1.11 ± 0.065 (concentration: 0.5mM).

As for DNMBP (UniProt Q6XZF7), the NP40-soluble protein abundance by setting is: (concentration: 0.1mM) 1.05 ± 0.077; (concentration: 0.5mM) 1.02 ± 0.076.

With TTC37 (UniProt Q6PGP7), the NP40-soluble protein abundance reads like this: (concentration: 0.1mM) 0.96 ± 0.064; (concentration: 0.5mM) 0.967 ± 0.05.

Consider SDCCAG8 (UniProt Q86SQ7), for which the NP40-soluble protein abundance runs as follows: (concentration: 0.1mM) 1.03 ± 0.048; (concentration: 0.5mM) 0.972 ± 0.021.

As for UniProt Q75N03 and related entries, the NP40-soluble protein abundance (concentration: 0.1mM) came to 1.03 ± 0.062 and the NP40-soluble protein abundance (concentration: 0.5mM) turned out to be 1.01 ± 0.039.

Regarding UniProt Q86YP4 and related entries, the NP40-soluble protein abundance (concentration: 0.1mM) was found to be 0.992 ± 0.03 and the NP40-soluble protein abundance (concentration: 0.5mM) amounted to 0.983 ± 0.074.

On to UniProt Q7Z6L1 and related entries, for which the NP40-soluble protein abundance by setting is: (concentration: 0.1mM) 1.03 ± 0.05; (concentration: 0.5mM) 0.976 ± 0.082.

As to CENPQ (UniProt Q7L2Z9), the NP40-soluble protein abundance reads like this: (concentration: 0.1mM) 0.913 ± 0.069; (concentration: 0.5mM) 0.962 ± 0.15.

As for UniProt Q6PII3, the NP40-soluble protein abundance is, setting by setting: (concentration: 0.1mM) 1 ± 0.078; (concentration: 0.5mM) 0.979 ± 0.058.

Turning to UniProt Q8IUH3 and related entries, the NP40-soluble protein abundance by setting is: (concentration: 0.1mM) 1.01 ± 0.043; (concentration: 0.5mM) 1.03 ± 0.077.

UniProt Q7RTV0: the NP40-soluble protein abundance came to 1.04 ± 0.016 (concentration: 0.1mM) and 1.11 ± 0.035 (concentration: 0.5mM).

Take RINL (UniProt Q6ZS11): the NP40-soluble protein abundance reads like this: (concentration: 0.1mM) 1.01 ± 0.019; (concentration: 0.5mM) 0.993 ± 0.026.

Regarding UniProt Q7Z3J2 and related entries, the NP40-soluble protein abundance was determined as 1.06 ± 0.032 (concentration: 0.1mM) and 1.02 ± 0.016 (concentration: 0.5mM).

On to UniProt Q86V48 and related entries, for which the NP40-soluble protein abundance by setting is: (concentration: 0.1mM) 0.948 ± 0.023; (concentration: 0.5mM) 0.963 ± 0.036.

For KCTD9 (UniProt Q7L273), the NP40-soluble protein abundance by setting is: (concentration: 0.1mM) 0.983 ± 0.041; (concentration: 0.5mM) 0.98 ± 0.028.

As for EEPD1 (UniProt Q7L9B9), the NP40-soluble protein abundance is, setting by setting: (concentration: 0.1mM) 1.24 ± 0.32; (concentration: 0.5mM) 1.06 ± 0.1.

With TICAM1 (UniProt Q8IUC6), the NP40-soluble protein abundance (concentration: 0.1mM) came to 0.874 ± 0.02 and the NP40-soluble protein abundance (concentration: 0.5mM) was determined as 0.953 ± 0.084.

For UniProt Q86XL3 and related entries, the NP40-soluble protein abundance amounted to 1.01 ± 0.026 (concentration: 0.1mM) and 1.01 ± 0.036 (concentration: 0.5mM).

In the case of ANKRD11 (UniProt Q6UB99), the NP40-soluble protein abundance was found to be 0.962 ± 0.01 (concentration: 0.1mM) and 0.9669 ± 0.0033 (concentration: 0.5mM).

For the target UniProt Q86UK7 and related entries, the NP40-soluble protein abundance reads like this: (concentration: 0.1mM) 1 ± 0.03; (concentration: 0.5mM) 1.04 ± 0.011.

Take UniProt Q86SX3 and related entries: the NP40-soluble protein abundance stood at 0.992 ± 0.17 (concentration: 0.1mM) and 1 ± 0.19 (concentration: 0.5mM).

As for SLC30A9 (UniProt Q6PML9), the NP40-soluble protein abundance was 0.983 ± 0.012 (concentration: 0.1mM) and 1 ± 0.033 (concentration: 0.5mM).

Take UniProt Q7L8J4 and related entries: the NP40-soluble protein abundance reads like this: (concentration: 0.1mM) 0.947 ± 0.032; (concentration: 0.5mM) 0.968 ± 0.024.

As for MTDH (UniProt Q86UE4), the NP40-soluble protein abundance was 1.01 ± 0.028 (concentration: 0.1mM) and 1.09 ± 0.028 (concentration: 0.5mM).

As to UniProt Q86U38, the NP40-soluble protein abundance reads like this: (concentration: 0.1mM) 0.94 ± 0.017; (concentration: 0.5mM) 0.978 ± 0.058.

As to UniProt Q7RTN6 and related entries, the NP40-soluble protein abundance was found to be 0.967 ± 0.11 (concentration: 0.1mM) and 1.09 ± 0.08 (concentration: 0.5mM).

For RRM2B (UniProt Q7LG56), the NP40-soluble protein abundance was 0.996 ± 0.058 (concentration: 0.1mM) and 1.04 ± 0.053 (concentration: 0.5mM).

For the target UniProt Q7Z2K6 and related entries, the NP40-soluble protein abundance was 1.11 ± 0.17 (concentration: 0.1mM) and 1.08 ± 0.039 (concentration: 0.5mM).

Regarding UniProt Q7L1Q6, the NP40-soluble protein abundance (concentration: 0.1mM) stood at 0.962 ± 0.029 and the NP40-soluble protein abundance (concentration: 0.5mM) is 0.994 ± 0.023.

As to UniProt Q7Z434 and related entries, the NP40-soluble protein abundance is, setting by setting: (concentration: 0.1mM) 0.9761 ± 0.0046; (concentration: 0.5mM) 0.9659 ± 0.0082.

For the target UniProt Q7Z569 and related entries, the NP40-soluble protein abundance (concentration: 0.1mM) came to 1.01 ± 0.043 and the NP40-soluble protein abundance (concentration: 0.5mM) was found to be 1.01 ± 0.05.

Take RPS19BP1 (UniProt Q86WX3): the NP40-soluble protein abundance turned out to be 0.979 ± 0.066 (concentration: 0.1mM) and 1.11 ± 0.091 (concentration: 0.5mM).

Turning to UniProt Q86UA6 and related entries, the NP40-soluble protein abundance reads like this: (concentration: 0.1mM) 1.05 ± 0.12; (concentration: 0.5mM) 1.07 ± 0.17.

On to C16orf87 (UniProt Q6PH81), for which the NP40-soluble protein abundance is, setting by setting: (concentration: 0.1mM) 0.966 ± 0.094; (concentration: 0.5mM) 0.969 ± 0.048.

Regarding UniProt Q7Z3C6 and related entries, the NP40-soluble protein abundance runs as follows: (concentration: 0.1mM) 1.04 ± 0.035; (concentration: 0.5mM) 0.989 ± 0.047.

Take ZBTB33 (UniProt Q86T24): the NP40-soluble protein abundance is, setting by setting: (concentration: 0.1mM) 1.03 ± 0.023; (concentration: 0.5mM) 1.01 ± 0.024.

With RSRC2 (UniProt Q7L4I2), the NP40-soluble protein abundance was determined as 1.1 ± 0.046 (concentration: 0.1mM) and 1.26 ± 0.12 (concentration: 0.5mM).

As to UniProt Q7Z5J4 and related entries, the NP40-soluble protein abundance is, setting by setting: (concentration: 0.1mM) 1.01 ± 0.016; (concentration: 0.5mM) 1.04 ± 0.0093.

Turning to HPS6 (UniProt Q86YV9), the NP40-soluble protein abundance came to 0.975 ± 0.071 (concentration: 0.1mM) and 0.964 ± 0.033 (concentration: 0.5mM).

On to SESTD1 (UniProt Q86VW0), for which the NP40-soluble protein abundance is, setting by setting: (concentration: 0.1mM) 0.963 ± 0.13; (concentration: 0.5mM) 1.01 ± 0.072.

In the case of UniProt Q6YP21 and related entries, the NP40-soluble protein abundance by setting is: (concentration: 0.1mM) 1.06 ± 0.14; (concentration: 0.5mM) 1.05 ± 0.078.

For UniProt Q7L5D6, the NP40-soluble protein abundance reads like this: (concentration: 0.1mM) 1 ± 0.031; (concentration: 0.5mM) 0.923 ± 0.027.

As to DARS2 (UniProt Q6PI48), the NP40-soluble protein abundance amounted to 1.06 ± 0.041 (concentration: 0.1mM) and 1.02 ± 0.062 (concentration: 0.5mM).

UniProt Q7Z624: the NP40-soluble protein abundance (concentration: 0.1mM) was 1.06 ± 0.016 and the NP40-soluble protein abundance (concentration: 0.5mM) amounted to 0.98 ± 0.097.

As to TRAPPC6B (UniProt Q86SZ2), the NP40-soluble protein abundance (concentration: 0.1mM) came to 0.963 ± 0.036 and the NP40-soluble protein abundance (concentration: 0.5mM) turned out to be 0.925 ± 0.11.

Take KTN1 (UniProt Q86UP2): the NP40-soluble protein abundance (concentration: 0.1mM) worked out at 0.961 ± 0.04 and the NP40-soluble protein abundance (concentration: 0.5mM) is 0.972 ± 0.06.

Consider UniProt Q709C8 and related entries, for which the NP40-soluble protein abundance (concentration: 0.1mM) is 1.05 ± 0.051 and the NP40-soluble protein abundance (concentration: 0.5mM) was found to be 1.03 ± 0.038.

On to TTC33 (UniProt Q6PID6), for which the NP40-soluble protein abundance (concentration: 0.1mM) stood at 0.958 ± 0.022 and the NP40-soluble protein abundance (concentration: 0.5mM) was 0.968 ± 0.015.

In the case of UniProt Q6PIW4 and related entries, the NP40-soluble protein abundance by setting is: (concentration: 0.1mM) 1.07 ± 0.022; (concentration: 0.5mM) 1.02 ± 0.093.

In the case of UniProt Q86TV6 and related entries, the NP40-soluble protein abundance by setting is: (concentration: 0.1mM) 0.935 ± 0.092; (concentration: 0.5mM) 0.909 ± 0.13.

In the case of UniProt Q7Z406 and related entries, the NP40-soluble protein abundance is 0.966 ± 0.2 (concentration: 0.1mM) and 1.1 ± 0.044 (concentration: 0.5mM).

For the target UniProt Q86UX7 and related entries, the NP40-soluble protein abundance by setting is: (concentration: 0.1mM) 1.05 ± 0.12; (concentration: 0.5mM) 1.02 ± 0.041.

In the case of UniProt Q86V88 and related entries, the NP40-soluble protein abundance runs as follows: (concentration: 0.1mM) 0.962 ± 0.044; (concentration: 0.5mM) 0.814 ± 0.047.

As for HDDC2 (UniProt Q7Z4H3), the NP40-soluble protein abundance runs as follows: (concentration: 0.1mM) 0.818 ± 0.17; (concentration: 0.5mM) 0.82 ± 0.24.

On to UniProt Q86V59 and related entries, for which the NP40-soluble protein abundance (concentration: 0.1mM) is 1.05 ± 0.13 and the NP40-soluble protein abundance (concentration: 0.5mM) worked out at 1.07 ± 0.12.

With UniProt Q86XP3 and related entries, the NP40-soluble protein abundance amounted to 1.04 ± 0.026 (concentration: 0.1mM) and 1.08 ± 0.047 (concentration: 0.5mM).

“Q76L82 and related entries (UniProt Q8IXJ9+Q76L82)”: the NP40-soluble protein abundance runs as follows: (concentration: 0.1mM) 1.02 ± 0.15; (concentration: 0.5mM) 1.01 ± 0.16.

Regarding UniProt Q7KYR7 and related entries, the NP40-soluble protein abundance runs as follows: (concentration: 0.1mM) 1.07 ± 0.19; (concentration: 0.5mM) 1.11 ± 0.19.
